The target of the experiment is T1, GABAA receptor α1 subunit, native, from mouse brain (mouse (endogenous in brain)), P62812.
T1 chain: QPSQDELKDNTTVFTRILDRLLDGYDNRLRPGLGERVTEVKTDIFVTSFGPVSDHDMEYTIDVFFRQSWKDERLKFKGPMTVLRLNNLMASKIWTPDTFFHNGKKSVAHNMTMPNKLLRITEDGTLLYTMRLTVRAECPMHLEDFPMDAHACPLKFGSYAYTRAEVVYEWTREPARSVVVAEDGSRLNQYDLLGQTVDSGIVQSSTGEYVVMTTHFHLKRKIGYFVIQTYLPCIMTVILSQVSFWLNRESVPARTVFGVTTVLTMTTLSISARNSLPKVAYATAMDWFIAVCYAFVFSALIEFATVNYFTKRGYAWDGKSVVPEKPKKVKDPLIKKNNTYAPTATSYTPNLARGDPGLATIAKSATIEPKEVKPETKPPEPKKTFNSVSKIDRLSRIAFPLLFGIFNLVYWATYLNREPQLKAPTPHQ
Kind of experiment: affinity purification with mass spectrometry. As to conditions: remark: other sources report otherwise.

These are yes or no findings as the source states them, for the method shown. Binding seen in cells or lysates may run through a third protein. A yes stands for co-enrichment or nearness to the bait. Other partners may have been found.

B1: GABAA receptor α4 subunit, native, from mouse brain, Q9D6F4 36-552 (receptor)
chain: QNSKDEKLCPENFTRILDSLLDGYDNRLRPGFGGPVTEVKTDIYVTSFGPVSDVEMEYTMDVFFRQTWIDKRLKYDGPIEILRLNNMMVTKVWTPDTFFRNGKKSVSHNMTAPNKLFRIMRNGTILYTMRLTISAECPMRLVDFPMDGHACPLKFGSYAYPKSEMIYTWTKGPEKSVEVPKESSSLVQYDLIGQTVSSETIKSITGEYIVMTVYFHLRRKMGYFMIQTYIPCIMTVILSQVSFWINKESVPARTVFGITTVLTMTTLSISARHSLPKVSYATAMDWFIAVCFAFVFSALIEFAAVNYFTNIQMQKAKKKISKPPPEVPAAPVLKEKHTETSLQNTHANLNMRKRTNALVHSESDVKSRTEVGNHSSKTSAVQESSEATPKAHLASSPNPFSRANAAETMSAAARGLSSAASPSPHGTLRPASLGSASTRPAFGSRLGRIKTTVNTTGAAGNVSATPPPPAPPPSGSGTSKIDKYARILFPVTFGAFNMVYWVVYLSKDTMEKSESLM
modifications: here or on the partner: N-glycosylated
B1: the binding entry is given as “binds”.

(Values after paper doi:10.1101/2023.02.16.528867.)
